PubChem BioAssay AID1259405 | NCATS | 2018

Aim: 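Mouse-designed siRNAs used to find CHO productivity engineering targets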 (primary screen)
Cell system: Chinese hamster CHO-K1 ovary cells with stable secreted eGFP expression
Knock-down reagent: single siRNA against mouse genes, 0.8 pmol siRNA per well (2 µl of 400 nM stock)
Duration: 3 days
Detection: 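Percent of the per-plate non-targeting control median for intracellular GFP per well by laser scanning cytometry and for cell viability by ATP luminescence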
Direction: GFP, % of control: higher = more GFP per well, higher productivity; viability (ATP), % of control: higher = more viable cells (more ATP)
Active means: 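Called active when intracellular GFP, relative to negative control, is at or above 120%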
Here is one part, drawn at random, of about 50,000 reagents. In the full data, about 4,000 (8%) were called active. 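Mouse siRNA library applied to hamster cells; one well for each siRNA.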 Entries without a mark were called inactive. Reagents against one gene are numbered here.

| gene knocked down | reagent no. | GFP, % of control | viability (ATP), % of control |
| --- | --- | --- | --- |
| Or9q2 (olfactory receptor family 9 subfamily Q member 2) | 1 | 85 | 71.2 |
| Or9q2 (olfactory receptor family 9 subfamily Q member 2) | 2 | 86.6 | 85.2 |
| Or9q2 (olfactory receptor family 9 subfamily Q member 2) | 3 | 85.8 | 83.7 |
| Fbxl8 (F-box and leucine-rich repeat protein 8) | 1 | 66 | 56.5 |
| Fbxl8 (F-box and leucine-rich repeat protein 8) | 2 | 112 | 56.9 |
| Fbxl8 (F-box and leucine-rich repeat protein 8) | 3 | 80.7 | 75.7 |
| Atp5pb (ATP synthase peripheral stalk-membrane subunit b) | 1 | 82.8 | 57.3 |
| Atp5pb (ATP synthase peripheral stalk-membrane subunit b) | 2 | 99 | 51.9 |
| Atp5pb (ATP synthase peripheral stalk-membrane subunit b) | 3 | 33.7 | 74.3 |
| Ptgs1 (prostaglandin-endoperoxide synthase 1) | 1 | 120 | 58.9 |
| Ptgs1 (prostaglandin-endoperoxide synthase 1) | 2 | 81.4 | 85.2 |
| Ptgs1 (prostaglandin-endoperoxide synthase 1) | 3 | 112 | 87.4 |
| Pcna (proliferating cell nuclear antigen) | 1 | 63 | 66.2 |
| Pcna (proliferating cell nuclear antigen) | 2 | 49.7 | 54.1 |
| Pcna (proliferating cell nuclear antigen) | 3 | 93.8 | 81 |
| Arid4a (AT-rich interaction domain 4A) | 1 | 57.5 | 147 |
| Arid4a (AT-rich interaction domain 4A) | 2 | 74.4 | 70.2 |
| Arid4a (AT-rich interaction domain 4A) | 3 | 92.7 | 87.1 |
| Mrgprx1 (MAS-related GPR, member X1) | 1 | 52.4 | 107 |
| Mrgprx1 (MAS-related GPR, member X1) | 2 | 79.7 | 62.9 |
| Mrgprx1 (MAS-related GPR, member X1) | 3 | 69.4 | 83.4 |
| Dpf1 (double PHD fingers 1) | 1 | 43.3 | 44.2 |
| Dpf1 (double PHD fingers 1) | 2 | 72.4 | 47.8 |
| Dpf1 (double PHD fingers 1) | 3 | 186 (active) | 127 |
| Or14j10 (olfactory receptor family 14 subfamily J member 10) | 1 | 111 | 49.4 |
| Or14j10 (olfactory receptor family 14 subfamily J member 10) | 2 | 49.5 | 65 |
| Or14j10 (olfactory receptor family 14 subfamily J member 10) | 3 | 52.5 | 35.5 |
| Pax5 (paired box 5) | 1 | 95.1 | 103 |
| Pax5 (paired box 5) | 2 | 100 | 96.2 |
| Lztr1 (leucine-zipper-like transcriptional regulator, 1) | 1 | 98.4 | 105 |
| Lztr1 (leucine-zipper-like transcriptional regulator, 1) | 2 | 111 | 103 |
| Lztr1 (leucine-zipper-like transcriptional regulator, 1) | 3 | 76.6 | 81.6 |
| Serpinb6b (serine (or cysteine) peptidase inhibitor, clade B, member 6b) | 1 | 69.7 | 80.1 |
| Serpinb6b (serine (or cysteine) peptidase inhibitor, clade B, member 6b) | 2 | 107 | 92 |
| Serpinb6b (serine (or cysteine) peptidase inhibitor, clade B, member 6b) | 3 | 106 | 97.1 |
| Tnip3 (TNFAIP3 interacting protein 3) | 1 | 63.6 | 56.9 |
| Tnip3 (TNFAIP3 interacting protein 3) | 2 | 68 | 65.7 |
| Tnip3 (TNFAIP3 interacting protein 3) | 3 | 45.2 | 59.4 |
| Cep57 (centrosomal protein 57) | 1 | 62.7 | 68.1 |
| Cep57 (centrosomal protein 57) | 2 | 50.9 | 58 |
| Cep57 (centrosomal protein 57) | 3 | 57.2 | 76.1 |
| 1700049L16Rik (RIKEN cDNA 1700049L16 gene) | 1 | 85.1 | 68.9 |
| 1700049L16Rik (RIKEN cDNA 1700049L16 gene) | 2 | 120 | 73.8 |
| 1700049L16Rik (RIKEN cDNA 1700049L16 gene) | 3 | 43.1 | 58.8 |
| Or7a42 (olfactory receptor family 7 subfamily A member 42) | 1 | 45.6 | 46.9 |
| Or7a42 (olfactory receptor family 7 subfamily A member 42) | 2 | 66.8 | 74.3 |
| Or7a42 (olfactory receptor family 7 subfamily A member 42) | 3 | 68.8 | 71.9 |
| Platr28 (pluripotency associated transcript 28) | 1 | 85.8 | 54.1 |
| Platr28 (pluripotency associated transcript 28) | 2 | 79.2 | 66.9 |
| Platr28 (pluripotency associated transcript 28) | 3 | 69.5 | 91.3 |
| Dctd (dCMP deaminase) | 1 | 23 | 17.1 |
| Dctd (dCMP deaminase) | 2 | 76.6 | 55.9 |
| Dctd (dCMP deaminase) | 3 | 78.4 | 64.2 |
| Chlsn (cholesin) | 1 | 81.6 | 73.2 |
| Chlsn (cholesin) | 2 | 45.3 | 47.5 |
| Chlsn (cholesin) | 3 | 65.9 | 99 |
| 4632415L05Rik (RIKEN cDNA 4632415L05 gene) | 1 | 46 | 49.9 |
| 4632415L05Rik (RIKEN cDNA 4632415L05 gene) | 2 | 78.9 | 95 |
| 4632415L05Rik (RIKEN cDNA 4632415L05 gene) | 3 | 76.8 | 101 |

Laid out differently: entries from further up.
gene knocked down,reagent no.,"GFP, % of control","viability (ATP), % of control"
Or9q2 (olfactory receptor family 9 subfamily Q member 2),2,86.6,85.2
Or9q2 (olfactory receptor family 9 subfamily Q member 2),3,85.8,83.7
Fbxl8 (F-box and leucine-rich repeat protein 8),1,66,56.5
Fbxl8 (F-box and leucine-rich repeat protein 8),2,112,56.9
